Reference: PMC5427934
Results are given in words; binding and its absence hold for the method and conditions named. In cells and extracts the contact can be indirect.

Sequences of proteins named here, by UniProt entry; tags and fusion partners are left off.
UniProt P79922: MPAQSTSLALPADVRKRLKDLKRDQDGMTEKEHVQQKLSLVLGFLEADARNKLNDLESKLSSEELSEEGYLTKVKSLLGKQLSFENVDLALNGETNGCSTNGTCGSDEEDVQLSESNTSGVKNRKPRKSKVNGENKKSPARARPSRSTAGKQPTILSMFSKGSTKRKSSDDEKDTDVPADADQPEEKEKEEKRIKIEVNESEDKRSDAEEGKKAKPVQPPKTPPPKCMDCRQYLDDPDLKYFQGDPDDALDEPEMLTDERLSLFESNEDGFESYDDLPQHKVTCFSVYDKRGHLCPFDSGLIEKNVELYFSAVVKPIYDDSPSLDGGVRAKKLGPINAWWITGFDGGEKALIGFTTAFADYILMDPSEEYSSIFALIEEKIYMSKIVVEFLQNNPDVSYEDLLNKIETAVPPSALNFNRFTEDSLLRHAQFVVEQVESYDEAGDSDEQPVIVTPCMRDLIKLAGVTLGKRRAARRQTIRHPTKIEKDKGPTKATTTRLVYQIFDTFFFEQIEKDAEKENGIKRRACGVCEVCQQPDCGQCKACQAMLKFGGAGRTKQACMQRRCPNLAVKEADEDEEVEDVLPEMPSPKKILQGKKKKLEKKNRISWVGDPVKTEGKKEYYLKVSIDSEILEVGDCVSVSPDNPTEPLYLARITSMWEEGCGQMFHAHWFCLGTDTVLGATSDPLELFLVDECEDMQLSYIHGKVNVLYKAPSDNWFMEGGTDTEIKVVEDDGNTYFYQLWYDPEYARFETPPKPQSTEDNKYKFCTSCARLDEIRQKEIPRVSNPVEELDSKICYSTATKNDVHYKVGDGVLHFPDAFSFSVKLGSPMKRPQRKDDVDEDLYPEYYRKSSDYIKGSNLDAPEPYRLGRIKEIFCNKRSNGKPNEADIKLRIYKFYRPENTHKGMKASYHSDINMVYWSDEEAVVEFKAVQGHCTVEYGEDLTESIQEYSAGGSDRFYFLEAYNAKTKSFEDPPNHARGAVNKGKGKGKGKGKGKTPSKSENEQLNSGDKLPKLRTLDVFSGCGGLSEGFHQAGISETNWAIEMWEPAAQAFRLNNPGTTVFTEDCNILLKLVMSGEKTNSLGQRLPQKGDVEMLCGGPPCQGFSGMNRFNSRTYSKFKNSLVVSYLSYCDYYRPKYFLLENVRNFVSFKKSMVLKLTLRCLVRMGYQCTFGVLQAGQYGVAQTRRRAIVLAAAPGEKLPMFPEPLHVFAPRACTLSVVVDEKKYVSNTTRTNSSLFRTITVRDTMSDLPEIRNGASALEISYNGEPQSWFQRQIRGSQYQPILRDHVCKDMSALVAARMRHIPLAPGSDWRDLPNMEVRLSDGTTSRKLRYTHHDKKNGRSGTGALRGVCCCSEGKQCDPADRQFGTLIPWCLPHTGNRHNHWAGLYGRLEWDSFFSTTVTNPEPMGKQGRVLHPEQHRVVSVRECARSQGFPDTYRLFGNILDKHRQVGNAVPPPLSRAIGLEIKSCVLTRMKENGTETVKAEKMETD

Assays:
[1] = molecular target: Xenopus Dnmt1 (endogenous, egg extracts) (Xenopus laevis (endogenous in egg extracts)) (UniProt P79922); assay: co-IP; endogenous proteins; Protein A agarose with anti-Dnmt1, anti-Usp7, anti-Uhrf1 antibodies or control IgG incubated with HSS 1 hr at 4 °C; washed with IP buffer (20 mM HEPES-KOH pH 7.7, 50 mM KCl, 2.5 mM MgCl2, 0.1% Triton X-100); immunoblot
[2] = molecular target: FLAG-tagged wild-type recombinant Xenopus Dnmt1 (Xenopus) (UniProt P79922); assay: co-IP; HSS supplemented with 85 nM purified recombinant xDnmt1-FLAGx3 (wild-type or KG linker mutant); immunoprecipitation with anti-FLAG M2 agarose or anti-Usp7 antibodies; immunoblot; only the target purified

binding [1]: no binding
binding [2]: no binding
B1: Xenopus Uhrf1 (endogenous, egg extracts) (enzyme, UniProt B6CHA3 1-772)
chain: MWIQVRTMDGRDTRRIDSLSKLTKVDDLRDRIQQLFGVALESQRLFYRGKQMENGHTLFDYSVGLNDIVQLLVRQIPDSFPTKHKECELSDASAGCGSGQRDSDSGSGEGAMDVDGQSISIIGENVGTSLYKKNDLVDARDLNMGAWFEAQIVNVSKKVGPYGTLPEVSDTSVTSDAIIYHVKYEDYPENGVVQLTCKDVRLRARTTLPWHEIKVGQVVMVNYNPDEPKERGYWYDAEILRKHESKKIKEIYAKVLLGDAGDSLNDCRIRFVNEIYKIEEPGSTYLNTESPQKRQNGPECKHCKDNPKRACRMCACCICGGKQDPEKQLLCDECDLAFHIYCLKPPLSVIPQDEDWYCPDCRNDASEVVLAGEKLKESKKKARMASANSSSQRDWGKGMACVGRSRECTIVPSNHYGPIPGVPVGTLWKFRVQVSESGVHRPHVAGIHGRSNDGSYSLVLAGGYEDDVDNGNEFTYTGSGGRDLSGNKRTAEQSCDQKLSNMNRALALNCSAPINDKEGSIAKDWRAGKPVRVVRNSKGRKHSKYAPEEGNRYDGIYKVVKYWPEKGKSGFLVWRYLLRRDDYEPAPWSKEGKERIKKLGLTMQYPDGYLETLASKEREKENKTEDEPIDSPSKGKRKRNSDNEQTAAKSIPKKMKVASYKLTLEQKTLIKQDVLNAKLWSEVMLFLKEGPKFVNKVEETFLCICCQEVVYEPVTTECHHNICKGCLDRSFKALVHSCPACRHDLGKNYPLNVNKPLQAILSQLFPGYESGR
